In paper doi:10.1101/2020.03.04.975474:
Like-named read-outs stand apart in the source and are kept apart here. These are yes or no findings as the source states them, for the method shown. Binding seen in cells or lysates may run through a third protein. These calls come from enrichment with a bait or labelling near it, and not all partners need be listed.

Protein sequences, listed by entry. Tags and fused reporters are not part of them. Residues count along the entry.
UniProt P14625, residues 22-803: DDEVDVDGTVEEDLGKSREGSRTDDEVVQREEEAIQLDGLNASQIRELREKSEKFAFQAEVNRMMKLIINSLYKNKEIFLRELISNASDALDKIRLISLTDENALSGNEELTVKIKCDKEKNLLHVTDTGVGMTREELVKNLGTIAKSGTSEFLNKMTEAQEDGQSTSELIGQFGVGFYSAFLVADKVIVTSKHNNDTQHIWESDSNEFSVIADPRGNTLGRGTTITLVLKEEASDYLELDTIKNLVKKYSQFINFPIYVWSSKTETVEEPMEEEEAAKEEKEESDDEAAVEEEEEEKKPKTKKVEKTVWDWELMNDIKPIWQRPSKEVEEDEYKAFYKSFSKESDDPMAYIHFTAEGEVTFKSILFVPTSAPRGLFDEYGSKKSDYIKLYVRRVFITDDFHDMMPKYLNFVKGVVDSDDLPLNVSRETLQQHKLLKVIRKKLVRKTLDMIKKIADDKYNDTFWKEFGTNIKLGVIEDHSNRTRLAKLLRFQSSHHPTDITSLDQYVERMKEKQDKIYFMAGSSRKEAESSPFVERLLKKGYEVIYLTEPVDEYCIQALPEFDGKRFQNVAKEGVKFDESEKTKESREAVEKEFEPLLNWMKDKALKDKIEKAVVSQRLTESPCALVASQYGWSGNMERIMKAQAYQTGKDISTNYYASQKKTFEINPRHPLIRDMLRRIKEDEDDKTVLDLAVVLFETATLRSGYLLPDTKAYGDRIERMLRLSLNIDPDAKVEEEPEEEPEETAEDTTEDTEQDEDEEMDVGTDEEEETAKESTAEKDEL
UniProt Q9Y520: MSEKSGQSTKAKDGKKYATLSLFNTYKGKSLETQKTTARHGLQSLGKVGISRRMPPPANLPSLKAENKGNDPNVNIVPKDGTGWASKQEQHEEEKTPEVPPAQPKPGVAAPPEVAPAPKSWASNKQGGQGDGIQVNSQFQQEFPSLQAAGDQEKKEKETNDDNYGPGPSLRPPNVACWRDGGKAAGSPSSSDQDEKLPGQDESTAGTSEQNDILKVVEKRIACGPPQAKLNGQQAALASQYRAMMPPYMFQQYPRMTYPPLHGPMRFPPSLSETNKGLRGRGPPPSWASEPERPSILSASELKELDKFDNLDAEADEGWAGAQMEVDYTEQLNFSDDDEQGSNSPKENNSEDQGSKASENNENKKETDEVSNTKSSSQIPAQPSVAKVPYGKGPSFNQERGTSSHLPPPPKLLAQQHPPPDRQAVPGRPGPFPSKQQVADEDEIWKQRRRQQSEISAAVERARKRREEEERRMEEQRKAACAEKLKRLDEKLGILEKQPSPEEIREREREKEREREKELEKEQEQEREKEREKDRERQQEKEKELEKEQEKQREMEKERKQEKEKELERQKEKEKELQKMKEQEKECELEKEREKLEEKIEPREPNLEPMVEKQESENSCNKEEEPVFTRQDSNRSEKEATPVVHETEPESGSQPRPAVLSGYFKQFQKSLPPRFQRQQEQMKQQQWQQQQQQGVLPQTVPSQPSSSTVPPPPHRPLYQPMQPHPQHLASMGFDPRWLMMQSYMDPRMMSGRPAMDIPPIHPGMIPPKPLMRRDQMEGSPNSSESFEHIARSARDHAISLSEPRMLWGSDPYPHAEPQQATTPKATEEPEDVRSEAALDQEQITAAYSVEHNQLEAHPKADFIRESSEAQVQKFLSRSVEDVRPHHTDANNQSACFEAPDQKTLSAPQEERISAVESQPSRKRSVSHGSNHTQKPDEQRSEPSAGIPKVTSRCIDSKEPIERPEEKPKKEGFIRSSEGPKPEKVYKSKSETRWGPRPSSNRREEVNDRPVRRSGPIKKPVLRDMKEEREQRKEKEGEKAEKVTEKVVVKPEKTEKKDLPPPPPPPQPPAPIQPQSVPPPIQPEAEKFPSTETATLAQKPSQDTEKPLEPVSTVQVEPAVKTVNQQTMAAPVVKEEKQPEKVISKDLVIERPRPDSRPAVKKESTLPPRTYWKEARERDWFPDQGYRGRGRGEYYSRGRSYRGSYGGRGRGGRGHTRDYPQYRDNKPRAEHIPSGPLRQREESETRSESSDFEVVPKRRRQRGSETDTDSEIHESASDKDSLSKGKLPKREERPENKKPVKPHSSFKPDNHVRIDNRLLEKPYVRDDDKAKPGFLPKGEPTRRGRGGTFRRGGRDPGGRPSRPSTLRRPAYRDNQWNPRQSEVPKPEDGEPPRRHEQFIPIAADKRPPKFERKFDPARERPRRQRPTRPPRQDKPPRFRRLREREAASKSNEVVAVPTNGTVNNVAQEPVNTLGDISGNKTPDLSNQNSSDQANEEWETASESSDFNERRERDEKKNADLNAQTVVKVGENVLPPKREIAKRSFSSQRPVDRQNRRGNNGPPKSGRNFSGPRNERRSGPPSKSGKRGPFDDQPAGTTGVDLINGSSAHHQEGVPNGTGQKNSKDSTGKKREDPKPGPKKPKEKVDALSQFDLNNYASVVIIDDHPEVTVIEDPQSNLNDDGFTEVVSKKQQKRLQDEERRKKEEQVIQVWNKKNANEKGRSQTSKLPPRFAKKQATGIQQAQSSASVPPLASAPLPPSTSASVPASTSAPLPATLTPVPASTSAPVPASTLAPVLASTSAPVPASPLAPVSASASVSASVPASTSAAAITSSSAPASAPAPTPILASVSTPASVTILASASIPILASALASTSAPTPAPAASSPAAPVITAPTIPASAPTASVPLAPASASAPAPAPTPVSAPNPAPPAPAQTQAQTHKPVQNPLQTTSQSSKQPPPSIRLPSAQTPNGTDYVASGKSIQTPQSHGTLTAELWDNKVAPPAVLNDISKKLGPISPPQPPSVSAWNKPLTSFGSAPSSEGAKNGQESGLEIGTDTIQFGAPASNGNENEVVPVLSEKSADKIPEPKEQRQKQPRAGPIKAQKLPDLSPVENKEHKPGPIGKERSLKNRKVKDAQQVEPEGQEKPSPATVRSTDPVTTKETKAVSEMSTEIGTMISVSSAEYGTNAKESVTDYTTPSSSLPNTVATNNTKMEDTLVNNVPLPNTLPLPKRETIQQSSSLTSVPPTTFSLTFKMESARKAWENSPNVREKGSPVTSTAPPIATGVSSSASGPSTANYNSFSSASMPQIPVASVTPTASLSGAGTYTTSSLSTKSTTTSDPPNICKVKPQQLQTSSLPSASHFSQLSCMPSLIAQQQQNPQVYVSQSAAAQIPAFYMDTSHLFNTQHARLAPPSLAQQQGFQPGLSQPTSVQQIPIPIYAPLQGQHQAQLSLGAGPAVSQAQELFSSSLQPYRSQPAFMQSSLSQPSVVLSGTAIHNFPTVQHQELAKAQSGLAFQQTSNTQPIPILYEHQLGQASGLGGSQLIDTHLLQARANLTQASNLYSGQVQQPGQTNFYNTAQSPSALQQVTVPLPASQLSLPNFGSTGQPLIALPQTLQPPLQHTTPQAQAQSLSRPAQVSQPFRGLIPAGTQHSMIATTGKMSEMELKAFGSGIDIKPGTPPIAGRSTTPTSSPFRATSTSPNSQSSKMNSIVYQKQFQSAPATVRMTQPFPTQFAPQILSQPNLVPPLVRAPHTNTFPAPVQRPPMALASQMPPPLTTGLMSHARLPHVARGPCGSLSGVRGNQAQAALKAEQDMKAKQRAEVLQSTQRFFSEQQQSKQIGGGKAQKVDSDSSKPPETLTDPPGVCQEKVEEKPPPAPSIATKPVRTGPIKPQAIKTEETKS
UniProt P11021, residues 19-654: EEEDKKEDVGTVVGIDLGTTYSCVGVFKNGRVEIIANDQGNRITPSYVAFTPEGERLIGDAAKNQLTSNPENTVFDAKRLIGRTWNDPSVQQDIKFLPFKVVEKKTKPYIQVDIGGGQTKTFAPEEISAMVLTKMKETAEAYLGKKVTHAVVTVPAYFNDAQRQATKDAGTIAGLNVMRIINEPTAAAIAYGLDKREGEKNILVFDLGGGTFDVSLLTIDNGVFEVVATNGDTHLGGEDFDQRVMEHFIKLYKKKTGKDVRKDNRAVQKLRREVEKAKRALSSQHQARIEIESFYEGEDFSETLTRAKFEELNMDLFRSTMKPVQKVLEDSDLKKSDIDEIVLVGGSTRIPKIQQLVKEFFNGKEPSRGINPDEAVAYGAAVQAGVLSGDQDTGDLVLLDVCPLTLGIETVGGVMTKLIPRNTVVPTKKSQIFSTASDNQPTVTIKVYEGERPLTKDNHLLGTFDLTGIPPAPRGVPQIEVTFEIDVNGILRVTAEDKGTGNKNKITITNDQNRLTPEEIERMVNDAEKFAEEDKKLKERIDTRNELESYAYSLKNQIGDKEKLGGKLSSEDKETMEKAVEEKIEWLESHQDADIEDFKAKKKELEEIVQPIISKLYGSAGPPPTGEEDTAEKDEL

Legend:
SEC62-BirA reporter [1] = molecular target: T1, SEC62-BirA reporter (UniProt Q99442); assay: proximity labelling
T1 sequence: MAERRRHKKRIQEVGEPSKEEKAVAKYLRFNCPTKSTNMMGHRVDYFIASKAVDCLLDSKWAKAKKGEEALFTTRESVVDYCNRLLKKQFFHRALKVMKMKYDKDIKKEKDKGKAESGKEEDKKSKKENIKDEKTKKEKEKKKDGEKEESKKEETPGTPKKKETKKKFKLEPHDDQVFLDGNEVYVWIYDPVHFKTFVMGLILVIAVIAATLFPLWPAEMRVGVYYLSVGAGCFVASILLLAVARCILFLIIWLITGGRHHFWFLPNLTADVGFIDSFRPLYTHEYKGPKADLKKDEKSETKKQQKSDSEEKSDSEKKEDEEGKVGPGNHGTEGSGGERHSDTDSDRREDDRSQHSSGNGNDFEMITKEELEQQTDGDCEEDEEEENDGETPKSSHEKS

[2] = molecular target: T2, LRRC59 (native, immunoprecipitated from Caco-2 cells) (human (endogenous in Caco-2)) (UniProt Q96AG4); assay: affinity purification with mass spectrometry
T2 sequence: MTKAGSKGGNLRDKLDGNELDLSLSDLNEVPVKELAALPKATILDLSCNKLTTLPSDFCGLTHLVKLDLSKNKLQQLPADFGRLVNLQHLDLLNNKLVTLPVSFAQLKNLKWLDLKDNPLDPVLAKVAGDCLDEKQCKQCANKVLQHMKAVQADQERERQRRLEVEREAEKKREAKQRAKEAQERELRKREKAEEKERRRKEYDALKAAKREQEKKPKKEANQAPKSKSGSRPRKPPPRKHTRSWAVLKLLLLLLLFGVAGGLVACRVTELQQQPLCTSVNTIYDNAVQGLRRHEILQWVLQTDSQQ

LRRC59-BirA reporter = molecular target: T3, LRRC59-BirA reporter (UniProt Q96AG4); assay: proximity labelling
T3 sequence: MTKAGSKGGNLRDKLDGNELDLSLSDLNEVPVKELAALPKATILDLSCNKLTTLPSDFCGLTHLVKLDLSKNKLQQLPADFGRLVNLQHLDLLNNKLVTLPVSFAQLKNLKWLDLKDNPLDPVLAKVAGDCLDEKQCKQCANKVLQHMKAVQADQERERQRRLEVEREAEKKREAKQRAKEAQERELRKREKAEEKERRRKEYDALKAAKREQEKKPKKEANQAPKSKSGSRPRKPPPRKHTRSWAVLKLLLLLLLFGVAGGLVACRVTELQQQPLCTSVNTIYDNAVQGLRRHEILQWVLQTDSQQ

RPN1-BirA reporter = molecular target: T4, RPN1-BirA reporter (UniProt P04843); assay: proximity labelling
T4 sequence: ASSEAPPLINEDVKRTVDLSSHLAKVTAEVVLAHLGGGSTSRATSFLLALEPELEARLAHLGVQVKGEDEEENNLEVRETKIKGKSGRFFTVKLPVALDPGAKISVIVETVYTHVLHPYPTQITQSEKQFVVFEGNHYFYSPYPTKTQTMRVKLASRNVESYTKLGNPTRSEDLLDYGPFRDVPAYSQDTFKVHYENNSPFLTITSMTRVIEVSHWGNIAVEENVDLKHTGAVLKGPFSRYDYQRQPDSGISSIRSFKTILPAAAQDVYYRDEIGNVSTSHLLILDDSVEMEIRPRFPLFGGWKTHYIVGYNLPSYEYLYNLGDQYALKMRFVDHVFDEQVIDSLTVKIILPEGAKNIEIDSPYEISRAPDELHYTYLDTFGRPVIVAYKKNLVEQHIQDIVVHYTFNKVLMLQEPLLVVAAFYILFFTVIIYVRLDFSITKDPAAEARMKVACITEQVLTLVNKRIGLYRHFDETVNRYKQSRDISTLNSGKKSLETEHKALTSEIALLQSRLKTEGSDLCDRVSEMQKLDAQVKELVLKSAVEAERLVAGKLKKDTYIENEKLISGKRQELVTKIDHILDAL

SEC62-BirA reporter [3] = molecular target: T1, SEC62-BirA reporter; assay: proximity labelling; remark: listed apart in the source

With “HSP90B1/GRP94 (from UniProt P14625 22-803)” the binding (SEC62-BirA reporter [1]) was “binds”.

For PRRC2C (from UniProt Q9Y520 1-2896), the binding [2] was “binds” and the binding (LRRC59-BirA reporter) was “binds”.

In the case of BiP (from UniProt P11021 19-654), the binding (SEC62-BirA reporter [1]) is reported as “binds”.

B1: STT3B (protein, UniProt Q8TCJ2 1-826)
chain: MAEPSAPESKHKSSLNSSPWSGLMALGNSRHGHHGPGAQCAHKAAGGAAPPKPAPAGLSGGLSQPAGWQSLLSFTILFLAWLAGFSSRLFAVIRFESIIHEFDPWFNYRSTHHLASHGFYEFLNWFDERAWYPLGRIVGGTVYPGLMITAGLIHWILNTLNITVHIRDVCVFLAPTFSGLTSISTFLLTRELWNQGAGLLAACFIAIVPGYISRSVAGSFDNEGIAIFALQFTYYLWVKSVKTGSVFWTMCCCLSYFYMVSAWGGYVFIINLIPLHVFVLLLMQRYSKRVYIAYSTFYIVGLILSMQIPFVGFQPIRTSEHMAAAGVFALLQAYAFLQYLRDRLTKQEFQTLFFLGVSLAAGAVFLSVIYLTYTGYIAPWSGRFYSLWDTGYAKIHIPIIASVSEHQPTTWVSFFFDLHILVCTFPAGLWFCIKNINDERVFVALYAISAVYFAGVMVRLMLTLTPVVCMLSAIAFSNVFEHYLGDDMKRENPPVEDSSDEDDKRNQGNLYDKAGKVRKHATEQEKTEEGLGPNIKSIVTMLMLMLLMMFAVHCTWVTSNAYSSPSVVLASYNHDGTRNILDDFREAYFWLRQNTDEHARVMSWWDYGYQIAGMANRTTLVDNNTWNNSHIALVGKAMSSNETAAYKIMRTLDVDYVLVIFGGVIGYSGDDINKFLWMVRIAEGEHPKDIRESDYFTPQGEFRVDKAGSPTLLNCLMYKMSYYRFGEMQLDFRTPPGFDRTRNAEIGNKDIKFKHLEEAFTSEHWLVRIYKVKAPDNRETLDHKPRVTNIFPKQKYLSKKTTKRKRGYIKNKLVFKKGKKISKKTV
B1 was tested, and the binding (RPN1-BirA reporter) was “binds”.

B2: SSR1/TRAPα (protein, UniProt P43307 19-286)
chain: VLFRGGPRGLLAVAQDLTEDEETVEDSIIEDEDDEAEVEEDEPTDLVEDKEEEDVSGEPEASPSADTTILFVKGEDFPANNIVKFLVGFTNKGTEDFIVESLDASFRYPQDYQFYIQNFTALPLNTVVPPQRQATFEYSFIPAEPMGGRPFGLVINLNYKDLNGNVFQDAVFNQTVTVIEREDGLDGETIFMYMFLAGLGLLVIVGLHQLLESRKRKRPIQKVEMGTSSQNDVDMSWIPQETLNQINKASPRRLPRKRAQKRSVGSDE
B2 was tested, and the binding (RPN1-BirA reporter) was “binds”.

B3: SSR3/TRAPγ (protein, UniProt Q9UNL2 1-185)
chain: MAPKGSSKQQSEEDLLLQDFSRNLSAKSSALFFGNAFIVSAIPIWLYWRIWHMDLIQSAVLYSVMTLVSTYLVAFAYKNVKFVLKHKVAQKREDAVSKEVTRKLSEADNRKMSRKEKDERILWKKNEVADYEATTFSIFYNNTLFLVVVIVASFFILKNFNPTVNYILSISASSGLIALLSTGSK
In the case of B3, the binding (RPN1-BirA reporter) is reported as “binds”.

B4: PRDX4 (protein, UniProt Q13162 38-271)
chain: WETEERPRTREEECHFYAGGQVYPGEASRVSVADHSLHLSKAKISKPAPYWEGTAVIDGEFKELKLTDYRGKYLVFFFYPLDFTFVCPTEIIAFGDRLEEFRSINTEVVACSVDSQFTHLAWINTPRRQGGLGPIRIPLLSDLTHQISKDYGVYLEDSGHTLRGLFIIDDKGILRQITLNDLPVGRSVDETLRLVQAFQYTDKHGEVCPAGWKPGSETIIPDPAGKLKYFDKLN
In the case of B4, the binding (SEC62-BirA reporter [3]) is reported as “binds”.
